# According to paper PMC8384837:
# Positions count from the first letter of the chain named. The list shows a part of the results. At the low end of the ranking the order means little.
# Columns and labels:
# Conditions in all cases: yeast three-hybrid, YBZ-1, SC-Leu-His + 0.5 mM 3-AT, 4 days
# [1] = molecular target: T1, PUM1 PUF domain R3-ASE C935A + R936S + Q939E (UniProt Q14671)
# T1 sequence: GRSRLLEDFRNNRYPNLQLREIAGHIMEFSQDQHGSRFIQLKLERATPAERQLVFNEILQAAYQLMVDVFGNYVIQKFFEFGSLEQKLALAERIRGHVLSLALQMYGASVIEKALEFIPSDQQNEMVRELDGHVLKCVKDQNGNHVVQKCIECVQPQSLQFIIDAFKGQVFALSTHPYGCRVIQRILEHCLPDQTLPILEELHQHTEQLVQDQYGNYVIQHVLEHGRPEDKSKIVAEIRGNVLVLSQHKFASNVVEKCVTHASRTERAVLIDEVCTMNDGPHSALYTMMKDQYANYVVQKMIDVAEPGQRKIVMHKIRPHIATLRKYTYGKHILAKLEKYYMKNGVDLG
# [2] = molecular target: T2, PUM1 PUF domain R3-ERS C935E + Q939S (UniProt Q14671)
# T2 sequence: T1 sequence with A108E, S109R, E112S
# [3] = molecular target: T3, PUM1 PUF domain R3-FCR C935F + R936C + Q939R (UniProt Q14671)
# T3 sequence: T1 sequence with A108F, S109C, E112R
# [4] = molecular target: T4, PUM1 PUF domain R3-FCV C935F + R936C + Q939V (UniProt Q14671)
# T4 sequence: T1 sequence with A108F, S109C, E112V
# [5] = molecular target: T5, PUM1 PUF domain R3-FSR C935F + R936S + Q939R (UniProt Q14671)
# T5 sequence: T1 sequence with A108F, E112R
# [6] = molecular target: T6, PUM1 PUF domain R3-HRR C935H + Q939R (UniProt Q14671)
# T6 sequence: T1 sequence with A108H, S109R, E112R
# [7] = molecular target: T7, PUM1 PUF domain R3-LRA C935L + Q939A (UniProt Q14671)
# T7 sequence: T1 sequence with A108L, S109R, E112A
# [8] = molecular target: T8, PUM1 PUF domain R3-MSR C935M + R936S + Q939R (UniProt Q14671)
# T8 sequence: T1 sequence with A108M, E112R
# [9] = molecular target: T9, PUM1 PUF domain R3-QPG C935Q + R936P + Q939G (UniProt Q14671)
# T9 sequence: T1 sequence with A108Q, S109P, E112G
# [10] = molecular target: T10, PUM1 PUF domain R3-QPS C935Q + R936P + Q939S (UniProt Q14671)
# T10 sequence: T1 sequence with A108Q, S109P, E112S
# [11] = molecular target: T11, PUM1 PUF domain R3-RAC C935R + R936A + Q939C (UniProt Q14671)
# T11 sequence: T1 sequence with A108R, S109A, E112C
# [12] = molecular target: T12, PUM1 PUF domain R3-RPW C935R + R936P + Q939W (UniProt Q14671)
# T12 sequence: T1 sequence with A108R, S109P, E112W
# [13] = molecular target: T13, PUM1 PUF domain R3-RSC C935R + R936S + Q939C (UniProt Q14671)
# T13 sequence: T1 sequence with A108R, E112C
# [14] = molecular target: T14, PUM1 PUF domain R3-RTI C935R + R936T + Q939I (UniProt Q14671)
# T14 sequence: T1 sequence with A108R, S109T, E112I
# [15] = molecular target: T15, PUM1 PUF domain R3-SAE C935S + R936A + Q939E (UniProt Q14671)
# T15 sequence: T1 sequence with A108S, S109A
# [16] = molecular target: T16, PUM1 PUF domain R3-TCE C935T + R936C + Q939E (UniProt Q14671)
# T16 sequence: T1 sequence with A108T, S109C
# [17] = molecular target: T17, PUM1 PUF domain R3-WCG C935W + R936C + Q939G (UniProt Q14671)
# T17 sequence: T1 sequence with A108W, S109C, E112G
# [18] = molecular target: T18, PUM1 PUF domain R3-WCL C935W + R936C + Q939L (UniProt Q14671)
# T18 sequence: T1 sequence with A108W, S109C, E112L
# [19] = molecular target: T19, PUM1 PUF domain R3-WCS C935W + R936C + Q939S (UniProt Q14671)
# T19 sequence: T1 sequence with A108W, S109C, E112S
# [20] = molecular target: T20, PUM1 PUF domain R3-YSG C935Y + R936S + Q939G (UniProt Q14671)
# T20 sequence: T1 sequence with A108Y, E112G
sequence,measurement,setting,value
GGCUAGAACUAGUGGAUCCCCCGGCGCCCGGCGGCUCGAGCCCGGGUAAGUGUAAAUAGUCUGCAUGCCGCCGGGCGCCAUGCCUGCAGGUCGACUCUAGAAAACAUG,binding signal (log2 enrichment (interaction score)),[1],< -7.54
same,binding signal (log2 enrichment (interaction score)),[2],-5.3
same,binding signal (log2 enrichment (interaction score)),[3],-3.22
same,binding signal (log2 enrichment (interaction score)),[4],-3.29
same,binding signal (log2 enrichment (interaction score)),[5],-2.84
same,binding signal (log2 enrichment (interaction score)),[6],-3.56
same,binding signal (log2 enrichment (interaction score)),[7],-2.86
same,binding signal (log2 enrichment (interaction score)),[8],-3.13
same,binding signal (log2 enrichment (interaction score)),[9],-3.25
same,binding signal (log2 enrichment (interaction score)),[10],-3.71
same,binding signal (log2 enrichment (interaction score)),[11],-3.58
same,binding signal (log2 enrichment (interaction score)),[12],-3.61
same,binding signal (log2 enrichment (interaction score)),[13],-3.38
same,binding signal (log2 enrichment (interaction score)),[14],-2.87
same,binding signal (log2 enrichment (interaction score)),[15],-3.73
same,binding signal (log2 enrichment (interaction score)),[16],-3.2
same,binding signal (log2 enrichment (interaction score)),[17],-3.12
same,binding signal (log2 enrichment (interaction score)),[18],-3.2
same,binding signal (log2 enrichment (interaction score)),[19],-2.9
same,binding signal (log2 enrichment (interaction score)),[20],-3.35

# Looked up one by one from above:
sequence,measurement,setting,value
GGCUAGAACUAGUGGAUCCCCCGGCGCCCGGCGGCUCGAGCCCGGGUAAGUGUAAAUAGUCUGCAUGCCGCCGGGCGCCAUGCCUGCAGGUCGACUCUAGAAAACAUG,binding signal (log2 enrichment (interaction score)),[4],-3.29
same,binding signal (log2 enrichment (interaction score)),[5],-2.84
